According to patent US20240067747A1 (SHANGHAI HUAOTA BIOPHARMACEUTICAL, published 2024):
Positions count from the first letter of the chain named. No constants are given. Whether binding was seen depends on the method and setting. Some results given as binding are weak or reduced against the parent protein; the word gives no strength.

T1: Human CD73 (as used in the hybridoma screening of Table 1) (human) (UniProt P21589)
T1 sequence (looked up): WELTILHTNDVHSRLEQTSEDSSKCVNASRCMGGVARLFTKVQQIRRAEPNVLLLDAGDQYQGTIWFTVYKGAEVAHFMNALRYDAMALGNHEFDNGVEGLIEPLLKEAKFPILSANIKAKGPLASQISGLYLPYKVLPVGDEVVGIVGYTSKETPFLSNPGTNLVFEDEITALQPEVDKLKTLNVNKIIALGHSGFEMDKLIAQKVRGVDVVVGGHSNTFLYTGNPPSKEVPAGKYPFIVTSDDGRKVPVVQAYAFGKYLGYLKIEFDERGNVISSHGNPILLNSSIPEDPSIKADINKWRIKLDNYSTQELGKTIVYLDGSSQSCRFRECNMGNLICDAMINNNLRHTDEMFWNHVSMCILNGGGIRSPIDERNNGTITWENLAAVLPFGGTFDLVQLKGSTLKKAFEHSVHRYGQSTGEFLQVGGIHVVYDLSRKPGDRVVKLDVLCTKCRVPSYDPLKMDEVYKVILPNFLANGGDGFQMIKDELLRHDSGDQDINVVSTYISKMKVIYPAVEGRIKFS

B1: 124A9 murine monoclonal antigen-binding protein (hybridoma clone 124A9) (antibody, V domains shown)
VH: QVQLQQPGAELVKPGASVKLSCKASGYTFTSYWIHWVKQRPGQGLDWIGMIHPNSGSTYYNEKFKSKATLTVDKSSSTAYMQLSSLTSEDSAVYYCARYYGSDYEWYFDVWGTGTTVTVSS
VL: DIVMTQSQKFMSTSVGDRVSITCKASQNVRTAVVWYQQNPGQSPKALIYLASNRHTGVPDRFTGSGSGTDFTLTISNVHSEDLADYFCLQHWNYPYTFGGGTKLEIK
B2: 900567 (human-mouse chimeric anti-CD73 antigen-binding protein expressed from 124A9 variable regions) (antibody, V domains shown)
VH: B1 VH
VL: B1 VL
B3: 900725 (humanized anti-CD73 antigen-binding protein) (antibody, V domains shown)
VH: QVQLVQSGAEVKKPGASVKLSCKASGYTFTSYWIHWVRQAPGQGLEWIGMIHPNSGSTYYNEKFKGRATLTVDKSTSTAYMELSSLRSEDTAVYYCARYYGSDYEWYFDVWGQGTTVTVSS
VL: DIQMTQSPSSMSASVGDRVTITCKASQNVRTAVVWYQQKPGKAPKALIYLASNRHTGVPDRFSGSGSGTDFTLTISSLQPEDFATYFCLQHWNYPYTFGQGTKLEIK
B4: 900726 (humanized anti-CD73 antigen-binding protein) (antibody, V domains shown)
VH: B3 VH
VL: B3 VL with M11L, F87Y
B5: 900727 (humanized anti-CD73 antigen-binding protein) (antibody, V domains shown)
VH: B3 VH with L20V, N61A, E62Q, K65Q, A68V, L70I
VL: B3 VL
B6: 900728 (humanized anti-CD73 antigen-binding protein) (antibody, V domains shown)
VH: B3 VH with L20V, K65Q, A68V, L70M
VL: B3 VL with M11L, F87Y

biological target: T1, Human CD73 (as used in the hybridoma screening of Table 1) (human); test: hybridoma screen (FACS, Biacore)

| Binder | binding |
| --- | --- |
| B1 | binds |

biological target: Cynomolgus CD73 protein (Novoprotein, item No. CI21) (cynomolgus); test: SPR, Biacore T200, protein A capture

| Binder | binding |
| --- | --- |
| B2 | binds |
| B3 | binds |
| B4 | binds |
| B5 | binds |
| B6 | binds |
